The list shows a part of the results. Residues, ends and D or L forms follow the SMILES beside them. *: point of attachment. Cbz = O=C(OCc1ccccc1)*
Tests used:
Assay in all cases: log2 fold change, soluble protein after heating vs DMSO (PISA); higher = thermal stabilisation; K562 cells, 10 uM, 30 min; active = over 0.2 and 3.5 SD of the protein, either way, in both replicates (recomputed)
IRAK-1-4 Inhibitor I = compound: C1COCCN1CCN2C3=CC=CC=C3N=C2NC(=O)C4=CC(=CC=C4)[N+](=O)[O-] [IRAK-1-4 Inhibitor I]
Procedure, shortened: (§1)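 Quantification of soluble protein used TMTpro 16plex LC-MS/MS, with channel sums equalised. Samples were the supernatant after 21,000xg for 90 min of pooled aliquots from K562 cells (2×10^6 cells/mL) treated with 10 μM compound for 30 min, heated for 3 min over 48°C-58°C, and extracted in PBS with 0.5% NP-40 at 4°C. Values, from duplicates, describe thermal stability against control samples on a log2 fold-change scale.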

Amino acid sequences for entries named in this document (tags omitted). A change or cut given only in a name is not applied to a line headed by its entry.
UniProt Q9H300: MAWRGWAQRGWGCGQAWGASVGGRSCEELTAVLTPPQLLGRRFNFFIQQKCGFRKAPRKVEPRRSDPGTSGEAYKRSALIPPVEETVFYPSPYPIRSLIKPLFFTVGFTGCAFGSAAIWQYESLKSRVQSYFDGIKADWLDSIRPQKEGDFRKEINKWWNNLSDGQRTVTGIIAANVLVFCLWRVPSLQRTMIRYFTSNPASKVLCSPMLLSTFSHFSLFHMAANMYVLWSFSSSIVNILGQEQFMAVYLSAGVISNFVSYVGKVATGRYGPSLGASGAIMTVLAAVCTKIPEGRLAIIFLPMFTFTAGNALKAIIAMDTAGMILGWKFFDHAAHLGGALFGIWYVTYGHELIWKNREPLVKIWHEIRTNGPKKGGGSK
UniProt P09874, whole entry, looked up: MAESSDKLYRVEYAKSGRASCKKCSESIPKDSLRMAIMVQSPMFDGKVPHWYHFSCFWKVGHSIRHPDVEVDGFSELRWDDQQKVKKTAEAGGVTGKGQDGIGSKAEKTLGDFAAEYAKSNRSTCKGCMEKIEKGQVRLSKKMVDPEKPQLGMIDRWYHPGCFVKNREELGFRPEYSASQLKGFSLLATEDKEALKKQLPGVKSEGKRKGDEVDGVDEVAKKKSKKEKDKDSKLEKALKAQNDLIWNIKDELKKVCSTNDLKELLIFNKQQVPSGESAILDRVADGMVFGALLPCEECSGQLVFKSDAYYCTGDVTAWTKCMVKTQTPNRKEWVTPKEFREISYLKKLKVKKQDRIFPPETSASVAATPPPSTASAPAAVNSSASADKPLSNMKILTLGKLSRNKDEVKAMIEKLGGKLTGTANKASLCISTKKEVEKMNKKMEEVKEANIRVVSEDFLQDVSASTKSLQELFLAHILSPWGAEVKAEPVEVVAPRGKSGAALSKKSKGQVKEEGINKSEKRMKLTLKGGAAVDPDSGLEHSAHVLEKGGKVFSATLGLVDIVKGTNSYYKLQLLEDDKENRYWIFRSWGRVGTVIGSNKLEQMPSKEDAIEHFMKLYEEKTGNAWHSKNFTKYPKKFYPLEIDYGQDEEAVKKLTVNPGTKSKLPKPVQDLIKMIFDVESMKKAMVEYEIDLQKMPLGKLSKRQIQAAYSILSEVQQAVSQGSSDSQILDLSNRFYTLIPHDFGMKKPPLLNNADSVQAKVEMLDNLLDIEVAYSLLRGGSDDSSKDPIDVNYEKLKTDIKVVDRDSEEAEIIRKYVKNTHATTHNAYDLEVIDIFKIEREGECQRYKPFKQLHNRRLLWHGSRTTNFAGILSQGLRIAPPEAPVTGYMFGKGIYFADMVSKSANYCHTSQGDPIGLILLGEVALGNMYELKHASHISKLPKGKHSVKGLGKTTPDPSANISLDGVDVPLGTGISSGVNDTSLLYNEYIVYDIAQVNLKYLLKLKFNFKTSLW
UniProt Q9H4Z3: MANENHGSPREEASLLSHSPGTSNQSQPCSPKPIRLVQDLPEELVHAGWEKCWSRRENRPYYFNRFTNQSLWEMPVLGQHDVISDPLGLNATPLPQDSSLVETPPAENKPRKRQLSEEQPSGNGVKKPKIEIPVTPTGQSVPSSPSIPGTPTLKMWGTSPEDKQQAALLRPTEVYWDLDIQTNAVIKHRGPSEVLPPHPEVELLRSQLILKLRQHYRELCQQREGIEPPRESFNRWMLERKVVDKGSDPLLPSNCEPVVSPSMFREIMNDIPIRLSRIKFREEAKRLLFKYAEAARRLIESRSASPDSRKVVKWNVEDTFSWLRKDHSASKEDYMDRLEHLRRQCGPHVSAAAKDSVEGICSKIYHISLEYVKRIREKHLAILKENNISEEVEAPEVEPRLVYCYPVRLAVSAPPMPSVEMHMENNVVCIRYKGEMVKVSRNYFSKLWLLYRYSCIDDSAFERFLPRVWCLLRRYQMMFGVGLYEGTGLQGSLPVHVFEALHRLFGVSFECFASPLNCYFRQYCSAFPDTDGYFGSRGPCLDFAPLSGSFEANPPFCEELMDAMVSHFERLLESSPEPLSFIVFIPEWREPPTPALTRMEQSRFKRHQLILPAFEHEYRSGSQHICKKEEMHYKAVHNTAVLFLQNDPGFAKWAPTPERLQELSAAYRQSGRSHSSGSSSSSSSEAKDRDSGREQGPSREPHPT
UniProt Q15118, whole entry, looked up: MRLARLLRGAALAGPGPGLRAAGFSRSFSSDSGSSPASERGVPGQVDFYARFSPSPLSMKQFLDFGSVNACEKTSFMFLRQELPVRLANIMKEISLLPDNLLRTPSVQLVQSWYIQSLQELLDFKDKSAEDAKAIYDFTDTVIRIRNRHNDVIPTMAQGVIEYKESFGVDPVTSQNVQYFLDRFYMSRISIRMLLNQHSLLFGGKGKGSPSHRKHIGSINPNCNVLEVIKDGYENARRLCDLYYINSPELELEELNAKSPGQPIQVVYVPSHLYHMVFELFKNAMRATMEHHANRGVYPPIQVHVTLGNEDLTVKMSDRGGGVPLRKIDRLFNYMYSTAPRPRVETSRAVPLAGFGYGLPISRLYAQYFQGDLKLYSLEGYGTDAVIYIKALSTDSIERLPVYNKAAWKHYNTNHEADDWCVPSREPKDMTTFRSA
UniProt Q9NWT1: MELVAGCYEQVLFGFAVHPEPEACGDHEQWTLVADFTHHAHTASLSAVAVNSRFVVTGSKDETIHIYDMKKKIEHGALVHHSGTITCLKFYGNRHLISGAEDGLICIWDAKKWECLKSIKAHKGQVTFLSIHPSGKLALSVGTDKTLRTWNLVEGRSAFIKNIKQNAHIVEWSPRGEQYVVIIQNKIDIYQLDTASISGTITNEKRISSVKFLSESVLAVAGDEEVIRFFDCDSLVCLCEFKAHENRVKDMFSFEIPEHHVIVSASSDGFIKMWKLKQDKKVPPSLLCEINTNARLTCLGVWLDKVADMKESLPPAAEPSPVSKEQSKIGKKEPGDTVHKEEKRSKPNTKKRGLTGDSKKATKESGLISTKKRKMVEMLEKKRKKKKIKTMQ
UniProt Q15004: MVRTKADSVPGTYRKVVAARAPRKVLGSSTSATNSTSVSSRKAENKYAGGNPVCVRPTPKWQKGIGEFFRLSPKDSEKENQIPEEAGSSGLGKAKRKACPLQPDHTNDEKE
UniProt O95613: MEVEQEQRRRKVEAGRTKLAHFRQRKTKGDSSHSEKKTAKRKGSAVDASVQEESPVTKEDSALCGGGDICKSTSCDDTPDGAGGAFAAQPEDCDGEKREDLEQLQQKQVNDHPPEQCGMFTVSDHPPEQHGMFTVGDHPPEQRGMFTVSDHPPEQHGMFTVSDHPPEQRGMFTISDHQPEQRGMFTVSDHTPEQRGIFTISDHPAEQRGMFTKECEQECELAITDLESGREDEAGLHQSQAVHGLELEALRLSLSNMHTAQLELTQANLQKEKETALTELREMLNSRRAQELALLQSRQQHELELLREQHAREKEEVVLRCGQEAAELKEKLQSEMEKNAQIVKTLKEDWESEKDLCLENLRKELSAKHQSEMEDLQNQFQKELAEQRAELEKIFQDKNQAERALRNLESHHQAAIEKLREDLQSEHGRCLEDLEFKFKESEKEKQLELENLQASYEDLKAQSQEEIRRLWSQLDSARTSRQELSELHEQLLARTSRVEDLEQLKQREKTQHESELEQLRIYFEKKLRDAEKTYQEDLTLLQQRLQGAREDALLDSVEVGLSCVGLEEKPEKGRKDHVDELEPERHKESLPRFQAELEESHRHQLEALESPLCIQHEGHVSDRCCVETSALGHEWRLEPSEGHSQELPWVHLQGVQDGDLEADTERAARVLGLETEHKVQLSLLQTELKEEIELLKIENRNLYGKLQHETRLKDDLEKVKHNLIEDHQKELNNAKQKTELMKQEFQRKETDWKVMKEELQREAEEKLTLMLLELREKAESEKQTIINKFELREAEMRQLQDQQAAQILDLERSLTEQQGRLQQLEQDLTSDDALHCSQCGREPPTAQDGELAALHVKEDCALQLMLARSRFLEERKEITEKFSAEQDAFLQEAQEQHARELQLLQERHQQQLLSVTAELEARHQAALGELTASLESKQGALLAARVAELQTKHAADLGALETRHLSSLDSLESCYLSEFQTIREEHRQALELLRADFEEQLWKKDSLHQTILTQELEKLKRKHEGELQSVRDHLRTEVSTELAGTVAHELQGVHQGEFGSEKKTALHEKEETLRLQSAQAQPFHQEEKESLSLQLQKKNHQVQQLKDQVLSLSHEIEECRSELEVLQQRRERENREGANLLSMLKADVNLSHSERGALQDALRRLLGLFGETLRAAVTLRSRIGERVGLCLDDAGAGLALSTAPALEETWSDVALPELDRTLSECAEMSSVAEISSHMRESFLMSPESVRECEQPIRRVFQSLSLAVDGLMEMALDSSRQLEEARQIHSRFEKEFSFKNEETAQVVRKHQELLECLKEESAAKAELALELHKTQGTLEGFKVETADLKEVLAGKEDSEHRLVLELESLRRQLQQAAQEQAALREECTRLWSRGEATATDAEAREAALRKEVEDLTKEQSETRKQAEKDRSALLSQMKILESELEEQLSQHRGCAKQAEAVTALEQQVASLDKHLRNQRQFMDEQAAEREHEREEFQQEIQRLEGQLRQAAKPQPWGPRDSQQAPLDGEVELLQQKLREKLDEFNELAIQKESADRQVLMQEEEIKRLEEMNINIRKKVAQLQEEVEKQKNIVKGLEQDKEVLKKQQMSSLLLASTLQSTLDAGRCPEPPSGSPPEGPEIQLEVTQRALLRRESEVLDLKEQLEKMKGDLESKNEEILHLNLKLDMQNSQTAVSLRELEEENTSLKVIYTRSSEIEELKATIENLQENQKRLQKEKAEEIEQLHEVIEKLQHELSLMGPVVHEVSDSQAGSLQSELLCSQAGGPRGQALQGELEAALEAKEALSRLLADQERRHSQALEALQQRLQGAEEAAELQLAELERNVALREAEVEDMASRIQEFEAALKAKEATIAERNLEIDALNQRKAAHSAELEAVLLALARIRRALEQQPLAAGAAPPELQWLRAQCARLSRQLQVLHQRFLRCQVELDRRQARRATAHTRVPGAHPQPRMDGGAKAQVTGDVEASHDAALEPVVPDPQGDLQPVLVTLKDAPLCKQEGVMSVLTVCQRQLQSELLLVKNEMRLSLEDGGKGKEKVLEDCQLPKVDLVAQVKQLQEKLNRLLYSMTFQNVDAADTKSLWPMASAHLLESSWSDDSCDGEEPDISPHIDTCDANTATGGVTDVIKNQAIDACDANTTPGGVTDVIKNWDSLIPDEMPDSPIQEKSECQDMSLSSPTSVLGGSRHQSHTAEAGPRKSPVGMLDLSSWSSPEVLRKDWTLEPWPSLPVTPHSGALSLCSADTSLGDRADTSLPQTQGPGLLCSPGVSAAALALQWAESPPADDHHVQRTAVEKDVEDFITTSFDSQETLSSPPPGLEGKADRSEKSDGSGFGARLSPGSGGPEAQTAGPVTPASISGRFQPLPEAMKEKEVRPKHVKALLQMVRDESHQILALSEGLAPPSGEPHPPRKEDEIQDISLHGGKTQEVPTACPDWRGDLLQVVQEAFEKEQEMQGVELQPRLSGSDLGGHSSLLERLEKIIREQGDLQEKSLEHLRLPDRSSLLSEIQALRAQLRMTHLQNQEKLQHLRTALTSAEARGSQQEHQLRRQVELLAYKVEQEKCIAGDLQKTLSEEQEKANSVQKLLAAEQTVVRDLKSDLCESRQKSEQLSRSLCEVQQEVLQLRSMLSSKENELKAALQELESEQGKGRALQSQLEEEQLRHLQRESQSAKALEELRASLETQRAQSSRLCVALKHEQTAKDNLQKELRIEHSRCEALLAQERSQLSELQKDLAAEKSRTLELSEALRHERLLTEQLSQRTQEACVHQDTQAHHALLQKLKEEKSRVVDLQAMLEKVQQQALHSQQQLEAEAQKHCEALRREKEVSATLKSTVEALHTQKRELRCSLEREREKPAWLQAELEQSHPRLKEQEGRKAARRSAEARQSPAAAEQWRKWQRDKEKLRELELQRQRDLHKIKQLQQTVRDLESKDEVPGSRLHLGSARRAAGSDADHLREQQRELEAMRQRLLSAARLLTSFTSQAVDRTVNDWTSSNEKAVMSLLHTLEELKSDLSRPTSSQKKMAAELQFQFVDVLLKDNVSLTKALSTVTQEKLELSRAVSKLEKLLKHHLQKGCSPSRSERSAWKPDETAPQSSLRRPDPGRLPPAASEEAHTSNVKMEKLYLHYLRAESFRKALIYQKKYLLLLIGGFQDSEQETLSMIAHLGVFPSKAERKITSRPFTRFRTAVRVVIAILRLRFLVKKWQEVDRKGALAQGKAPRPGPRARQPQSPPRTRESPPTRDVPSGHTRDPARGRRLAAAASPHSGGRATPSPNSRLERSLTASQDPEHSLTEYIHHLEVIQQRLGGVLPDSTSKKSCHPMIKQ

ibrutinib = compound: C=CC(=O)N1CCC[C@@H](n2nc(-c3ccc(Oc4ccccc4)cc3)c3c(N)ncnc32)C1 [ibrutinib]
Procedure, shortened: as §1

[1] = compound: CC(=O)c1cnc2ccc(-c3cc(Cl)c(O)c(Cl)c3)nc2c1N[C@H]1CC[C@H](CN(C)C)CC1
Procedure, shortened: as §1

ralimetinib = compound: CC(C)(C)Cn1c(N)nc2ccc(-c3[nH]c(C(C)(C)C)nc3-c3ccc(F)cc3)nc21 [ralimetinib]
Procedure, shortened: as §1

[2] = compound: CC(C)(O)CC(=O)NCCn1ccc2ncnc(Nc3ccc(Oc4cccc(C(F)(F)F)c4)c(Cl)c3)c21
Procedure, shortened: as §1

[3] = compound: CC(C)C1=C2N=C(C=C(N2N=C1)NCC3=CC=CC=C3)NCCCCCCN
Procedure, shortened: as §1

[4] = compound: CC(C)C[C@@H](C=O)NC(=O)[C@H](CC(C)C)NC(=O)[C@H](CC(C)C)NC(=O)OCc1ccccc1
Procedure, shortened: as §1

pinometostat = compound: CC(C)N(C[C@H]1O[C@@H](n2cnc3c(N)ncnc32)[C@H](O)[C@@H]1O)[C@H]1C[C@@H](CCc2nc3cc(C(C)(C)C)ccc3[nH]2)C1 [pinometostat]
Procedure, shortened: as §1

[5] = compound: CC1=C(C(CC(=O)N1)C2=CC=C(C=C2)C(F)(F)F)C(=O)NC3=C(C=C4C(=C3)C=NN4)F
Procedure, shortened: as §1

[6] = compound: CC1=C(C2=C(C=C1)C(=O)C3=CC=CC=C3N2CCCN)C
Procedure, shortened: as §1

[7] = compound: CC1=C(C=C(C=C1)NC(=O)C2=CC(=CC=C2)C(C)(C)C#N)NC3=CC4=C(C=C3)N=CN(C4=O)C
Procedure, shortened: as §1

[8] = compound: CC1=C(C=C(C=C1)NC(=O)C2=CC(=CC=C2)N(C)C)NC(=O)C3=CC=C(C=C3)O
Procedure, shortened: as §1

[9] = compound: CC1=CC=C(C=C1)SC2=C3C=C(SC3=CN=C2)C(=O)N
Procedure, shortened: as §1

[10] = compound: CC1=NC(=CC=C1)C2=C(N=C(N2)C(C)(C)C)C3=CC4=NC=CN=C4C=C3
Procedure, shortened: as §1

Nexturastat A = compound: CCCCN(Cc1ccc(C(=O)NO)cc1)C(=O)Nc1ccccc1 [Nexturastat A]
Procedure, shortened: as §1

vemurafenib = compound: CCCS(=O)(=O)Nc1ccc(F)c(C(=O)c2c[nH]c3ncc(-c4ccc(Cl)cc4)cc23)c1F [vemurafenib]
Procedure, shortened: as §1

[11] = compound: CCCS(=O)(=O)Nc1ccc(F)c(C(=O)c2c[nH]c3ncc(Cl)cc23)c1F
Procedure, shortened: as §1

[12] = compound: CCCc1cc(C)[nH]c(=O)c1CNC(=O)c1cc(-c2ccnc(N3CCN(C)CC3)c2)cc2c1cnn2C(C)C
Procedure, shortened: as §1

givinostat = compound: CCN(CC)Cc1ccc2cc(COC(=O)Nc3ccc(C(=O)NO)cc3)ccc2c1 [givinostat]
Procedure, shortened: as §1

barasertib = compound: CCN(CCCOc1ccc2c(Nc3cc(CC(=O)Nc4cccc(F)c4)[nH]n3)ncnc2c1)CCOP(=O)(O)O [barasertib]
Procedure, shortened: as §1

Row | Target | log2 fold change (IRAK-1-4 Inhibitor I) | log2 fold change (ibrutinib) | log2 fold change [1] | log2 fold change (ralimetinib) | log2 fold change [2] | log2 fold change [3] | log2 fold change [4] | log2 fold change (pinometostat) | log2 fold change [5] | log2 fold change [6] | log2 fold change [7] | log2 fold change [8] | log2 fold change [9] | log2 fold change [10] | log2 fold change (Nexturastat A) | log2 fold change (vemurafenib) | log2 fold change [11] | log2 fold change [12] | log2 fold change (givinostat) | log2 fold change (barasertib)
1 | PAXIP1 (UniProt Q6ZW49) | inactive: -0.155 | inactive: 0.116 | inactive: -0.355 | inactive: 0.022 | inactive: 0.139 | inactive: -0.07 | inactive: -0.167 | inactive: 0.118 | inactive: -0.091 | inactive: 0.02 | inactive: -0.157 | inactive: 0.06 | inactive: -0.013 | inactive: 0.062 | inactive: 0.061 | inactive: 0.079 | inactive: -0.038 | inactive: 0.127 | inactive: 0.032 | inactive: -0.092
2 | PDCD4 (UniProt Q53EL6) | inactive: -0.043 | inactive: -0.05 | inactive: 0.271 | inactive: -0.042 | inactive: -0.091 | inactive: -0.194 | inactive: -0.015 | inactive: -0.046 |  | inactive: -0.17 | inactive: 0.029 | inactive: -0.043 | inactive: 0.012 | inactive: 0.016 | inactive: -0.11 | inactive: 0.083 | inactive: 0.107 | inactive: -0.06 | inactive: 0.103 | inactive: 0.002
3 | PARL (UniProt Q9H300) | inactive: 0.019 | inactive: 0.007 | inactive: 0.003 | inactive: -0.022 | inactive: -0.003 | active: -0.233 | inactive: 0.005 | inactive: -0.006 |  | inactive: 0.017 | inactive: 0 | inactive: 0.025 | inactive: 0.02 | inactive: 0.002 | inactive: -0.098 | inactive: -0.014 | inactive: 0.057 | inactive: -0.036 | inactive: 0.068 | inactive: -0.022
4 | PARP1 (UniProt P09874) | inactive: -0.068 | inactive: -0.027 | inactive: -0.052 | inactive: 0.039 | inactive: 0.108 | inactive: -0.068 | inactive: 0.018 | inactive: -0.009 |  | active: 0.578 | inactive: 0.116 | inactive: -0.149 | inactive: 0.071 | inactive: 0.107 | inactive: -0.13 | inactive: 0.112 | inactive: 0.145 | active: 0.555 | inactive: 0.045 | inactive: 0.122
5 | PDSS2 (UniProt Q86YH6) | inactive: 0.1 | inactive: 0.074 | inactive: 0.058 | inactive: -0.059 | inactive: -0.089 | inactive: -0.085 | inactive: 0.054 | inactive: -0.017 | active: -0.438 | inactive: -0.022 | inactive: -0.215 | inactive: 0.017 | inactive: 0.093 | inactive: -0.083 | inactive: -0.126 | inactive: -0.03 | inactive: 0.244 |  | inactive: -0.046 | inactive: 0.027
6 | PCIF1 (UniProt Q9H4Z3) | inactive: 0.013 | inactive: -0.077 | inactive: -0.192 | inactive: 0.066 | inactive: -0.025 | inactive: -0.032 | inactive: 0.049 | inactive: -0.102 | inactive: -0.086 | inactive: 0.019 | inactive: -0.177 | inactive: -0.257 |  | inactive: 0.126 | inactive: -0.413 | inactive: 0.1 |  | inactive: 0.123 | inactive: -0.061 | inactive: 0.001
7 | PEX13 (UniProt Q92968) | inactive: 0.053 | inactive: -0.067 | inactive: -0.011 | inactive: 0.062 | inactive: -0.193 | inactive: -0.201 | inactive: 0.036 | inactive: -0.032 |  | inactive: 0.024 | inactive: 0.052 | inactive: -0.101 | inactive: 0.033 | inactive: -0.02 | inactive: 0.116 | inactive: -0.033 | inactive: 0.033 | inactive: -0.142 | inactive: -0.034 | inactive: 0.044
8 | PCBP1 (UniProt Q15365) | inactive: 0 | inactive: -0.017 | inactive: -0.005 | inactive: 0.058 | inactive: -0.058 | inactive: -0.118 | inactive: -0.006 | inactive: -0.003 |  | inactive: 0.039 | inactive: 0.034 | inactive: -0.037 | inactive: 0.112 | inactive: 0.067 | inactive: -0.038 | inactive: 0.022 | inactive: 0.097 | inactive: -0.011 | inactive: 0.013 | inactive: 0.021
9 | PDK1 (UniProt Q15118) | inactive: 0.024 | inactive: -0.081 | inactive: -0.072 | inactive: 0.002 | inactive: 0.009 | inactive: 0.121 | inactive: 0.002 | inactive: 0.001 | inactive: -0.137 | inactive: 0.166 | inactive: -0.017 | inactive: -0.025 | inactive: -0.029 | inactive: 0.028 | inactive: 0.029 | inactive: -0.022 | inactive: 0.031 | inactive: 0.033 | inactive: 0.036 | inactive: 0.139
10 | PAFAH1B2 (UniProt P68402) | inactive: 0.013 | inactive: 0.017 | inactive: -0.016 | inactive: 0.038 | active: -0.436 | inactive: 0.012 | inactive: -0.033 | inactive: 0.016 |  | inactive: 0.005 | inactive: 0.064 | inactive: 0.005 | inactive: -0.106 | inactive: -0.046 | inactive: -0.157 | inactive: 0.083 | inactive: -0.135 | inactive: -0.355 | inactive: 0.042 | inactive: 0.046
11 | PDE2A (UniProt O00408) | inactive: 0.083 | inactive: 0.026 | inactive: -0.001 | inactive: 0.12 | inactive: -0.082 | inactive: 0.014 | inactive: -0.009 | inactive: -0.007 |  | inactive: 0.043 | inactive: -0.041 | inactive: 0.007 | inactive: 0.041 | inactive: -0.019 | inactive: -0.054 | inactive: 0.013 | inactive: 0.036 | inactive: -0.012 | inactive: -0.043 | inactive: 0.011
12 | PAK1IP1 (UniProt Q9NWT1) | inactive: -0.141 | inactive: -0.001 | inactive: 0.18 | inactive: 0.182 | inactive: 0.118 | inactive: 0.104 | inactive: 0.037 | inactive: 0.445 | inactive: 0.062 | inactive: -0.296 | inactive: 0.004 | inactive: -0.017 | inactive: -0.155 | inactive: -0.095 | inactive: 0.199 | inactive: -0.201 | inactive: -0.127 | inactive: 0.161 | inactive: -0.024 | inactive: -0.18
13 | PDCD2L (UniProt Q9BRP1) | inactive: -0.034 | inactive: -0.006 | inactive: 0.07 | inactive: 0.047 | inactive: -0.115 | inactive: 0.078 | inactive: 0.042 | inactive: 0.007 |  | inactive: 0.041 | inactive: -0.001 | inactive: -0.104 | inactive: 0.052 | inactive: 0.068 | inactive: 0 | inactive: -0.038 | inactive: 0.079 | inactive: 0.045 | inactive: -0.088 | inactive: 0.069
14 | PELP1 (UniProt Q8IZL8) | inactive: 0.017 | inactive: -0.017 | inactive: -0.106 | inactive: 0.04 | inactive: -0.031 | inactive: 0.017 | inactive: -0.019 | inactive: 0.008 |  | active: -2.07 | inactive: -0.048 | inactive: 0.044 | inactive: 0.034 | inactive: -0.02 | inactive: 0.15 | inactive: -0.01 | inactive: -0.038 | inactive: -0.006 | inactive: 0.039 | inactive: -0.085
15 | PCLAF (UniProt Q15004) | inactive: 0.055 | inactive: 0.034 | inactive: -0.061 | inactive: -0.012 | inactive: 0.036 | inactive: 0.184 | active: 0.278 | inactive: -0.012 |  | inactive: -0.088 | inactive: -0.119 | inactive: 0.031 | inactive: -0.014 | inactive: -0.009 | inactive: -0.002 | inactive: -0.097 | inactive: -0.083 | inactive: 0.115 | inactive: -0.061 | inactive: -0.007
16 | PDE4DIP isoform 4 (UniProt Q5VU43) | inactive: -0.006 | inactive: 0.001 | inactive: 0.045 | inactive: 0.011 | inactive: -0.08 | inactive: 0.035 | inactive: 0.087 | inactive: -0.05 |  | inactive: 0.088 | inactive: -0.027 | inactive: -0.049 | inactive: -0.012 | inactive: -0.044 | active: 0.358 | inactive: -0.034 | inactive: -0.01 | inactive: -0.023 | inactive: 0.021 | inactive: 0.083
17 | PCNT (UniProt O95613) | inactive: 0.085 | inactive: -0.078 | inactive: -0.079 | inactive: -0.113 | inactive: -0.021 | inactive: 0.053 | inactive: 0.229 | inactive: 0.069 |  | inactive: -0.018 | inactive: -0.104 | inactive: 0.068 | inactive: -0.117 | inactive: -0.116 | inactive: 0.007 | inactive: -0.122 | inactive: -0.103 | inactive: -1.05 | inactive: 0.255 | inactive: 0.045

Part of the list above, set out differently:
Row	Target	log2 fold change (IRAK-1-4 Inhibitor I)	log2 fold change (ibrutinib)	log2 fold change [1]	log2 fold change (ralimetinib)	log2 fold change [2]	log2 fold change [3]	log2 fold change [4]	log2 fold change (pinometostat)	log2 fold change [5]	log2 fold change [6]	log2 fold change [7]	log2 fold change [8]	log2 fold change [9]	log2 fold change [10]	log2 fold change (Nexturastat A)	log2 fold change (vemurafenib)	log2 fold change [11]	log2 fold change [12]	log2 fold change (givinostat)	log2 fold change (barasertib)
9	PDK1 (UniProt Q15118)	inactive: 0.024	inactive: -0.081	inactive: -0.072	inactive: 0.002	inactive: 0.009	inactive: 0.121	inactive: 0.002	inactive: 0.001	inactive: -0.137	inactive: 0.166	inactive: -0.017	inactive: -0.025	inactive: -0.029	inactive: 0.028	inactive: 0.029	inactive: -0.022	inactive: 0.031	inactive: 0.033	inactive: 0.036	inactive: 0.139
10	PAFAH1B2 (UniProt P68402)	inactive: 0.013	inactive: 0.017	inactive: -0.016	inactive: 0.038	active: -0.436	inactive: 0.012	inactive: -0.033	inactive: 0.016		inactive: 0.005	inactive: 0.064	inactive: 0.005	inactive: -0.106	inactive: -0.046	inactive: -0.157	inactive: 0.083	inactive: -0.135	inactive: -0.355	inactive: 0.042	inactive: 0.046
